# Reference: PubChem BioAssay AID2551 (National Center for Advancing Translational Sciences (NCATS), 2010)
# Sequences of proteins named here, by UniProt entry; tags and fusion partners are left off. A change or cut given only in a name is not applied to a line headed by its entry.
# UniProt P51450: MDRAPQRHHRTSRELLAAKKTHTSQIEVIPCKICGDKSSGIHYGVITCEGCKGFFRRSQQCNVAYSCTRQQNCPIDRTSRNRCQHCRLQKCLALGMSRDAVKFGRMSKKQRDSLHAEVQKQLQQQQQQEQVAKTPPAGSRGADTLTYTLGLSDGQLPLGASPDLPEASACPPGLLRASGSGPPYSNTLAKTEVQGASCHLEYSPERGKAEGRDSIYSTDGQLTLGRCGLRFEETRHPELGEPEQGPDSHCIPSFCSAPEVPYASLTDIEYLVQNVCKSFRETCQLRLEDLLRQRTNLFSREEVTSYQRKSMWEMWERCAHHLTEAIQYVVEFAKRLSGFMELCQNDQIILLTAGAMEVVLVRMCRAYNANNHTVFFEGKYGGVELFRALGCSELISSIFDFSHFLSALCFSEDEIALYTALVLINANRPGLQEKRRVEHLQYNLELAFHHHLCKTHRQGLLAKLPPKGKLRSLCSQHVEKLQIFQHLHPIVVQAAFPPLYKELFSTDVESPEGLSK
# The whole screen tested about 310,000 compounds, of which about 17,000 (5.5%) were called active. The shares of active, inactive and inconclusive entries below differ from those in the screen. Calls follow the shape of the dose curve; as a rule, active = well fitted inhibition curve with a large enough effect; inconclusive = small, poorly fitted or top-dose-only effect, or effect the other way; inactive = no such curve, though single readings can be large or run the other way. Where the call is inconclusive, the potency comes from a doubtful curve fit.
# Biological target: Nuclear receptor ROR-gamma (Mus musculus) (UniProt P51450)
# Experiment: qHTS for inhibitors of ROR gamma transcriptional activity; also: nearly all actives have a fitted effect of over 60% in size
# Conditions: Drosophila S2 Gal4-RORgamma UAS-luciferase reporter, 20 h; activity change, negative = inhibition: at 53.6 µM (top of the series)
# Outline: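 Stably transfected Drosophila Schneider cells are the test system, with ROR gamma fused to Gal4 and luciferase under UAS control; luminescence is read after 20 hr of 700 uM copper sulfate induction at ambient temperature.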
# % is scaled to controls: 0 for no effect and ±100 for the full control effect; potency is read from the fitted curve at half-maximal effect.
SMILES,Potency,"activity change, negative = inhibition"
COc1ccc2[nH]c(-c3ccccc3)cc(=O)c2c1,"inconclusive: 28.2 µM [inhibitor, single point]",
Cn1cc(CN(CCCN2CCOCC2)C(=S)Nc2cccc(Cl)c2)c2ccccc21,"inconclusive: 20 µM [inhibitor, single point]",
CCN(C1CCCCC1)S(=O)(=O)c1cc(C)ccc1OC,inactive,
O=c1c2ccccc2[nH]c(=S)n1CCCN1CCOCC1,"inconclusive: 35.5 µM [inhibitor, single point]",
CC1CCCC(NC(=O)CNC(=S)N(Cc2ccccc2)Cc2cccs2)C1C (stereo not given),"inconclusive: 20 µM [inhibitor, single point]",
CCOC(=O)c1cnc(Nc2nc3ccccc3o2)nc1CN1CCN(C)CC1,"inconclusive: 7.94 µM [inhibitor, partial curve]",
O=C(CSc1oc(-c2ccccc2)nc1S(=O)(=O)c1ccccc1)NCC1CCCO1 (stereo not given),"inconclusive: 22.4 µM [inhibitor, single point]",
Cc1ccc(S(=O)(=O)N2CC(C(=O)O)Oc3ccccc32)cc1 (stereo not given),inactive,
COc1ccc(-c2nnc(NC(=O)C3=COCCO3)o2)cc1,active: 3.55 µM,
CC1(C)C2CCC1(C)C(OCC[N+](C)(C)CC(=O)OC1CCCCC1)C2 (stereo not given),"inconclusive: 11.2 µM [activator, single point]",
CC1(C)CC(NC(=O)C(C)(C)Oc2ccc(Cl)cc2)CC(C)(C)N1,inactive,
CCOC(=O)Cc1csc(NC(=O)CSc2nnnn2-c2ccc(C)c(C)c2)n1,"inconclusive: 0.141 µM [activator, full curve]",
Cc1ccc(-n2c(SCC(=O)NCc3ccco3)nc3c(sc4ccccc43)c2=O)cc1,"inconclusive: 2.24 µM [activator, full curve, poor fit]",
O=[N+]([O-])c1c(NCCO)cc(N2CCCCCC2)c2nonc12,"inconclusive: 2.82 µM [activator, full curve]",
O=C(COC(=O)c1cncc(Br)c1)NCc1ccco1,"inconclusive: 2.24 µM [activator, partial curve]",
COc1ccccc1N/C=C(\C#N)c1nc2ccccc2[nH]1,"inconclusive: 31.6 µM [inhibitor, single point]",
Clc1ccc(-c2ccc(C=Nc3ccc(N4CCOCC4)cc3)o2)cc1,inactive,
Cn1c(Sc2nc3ccccc3n2C)nc2ccccc21,"inconclusive: 17.8 µM [inhibitor, single point]",
COc1cc(OC)cc(C(=O)Nc2nc(-c3ccccc3)c(-c3ccccc3)o2)c1,active: 1.41 µM,
CCn1c(CNS(=O)(=O)c2ccc(Cl)cc2)n[nH]c1=S,inactive,
CCCCc1ccc(NC(=O)c2cnccn2)cc1,"inconclusive: 7.94 µM [inhibitor, single point]",
C#CCSc1nncn1C(=O)/C=C/c1ccccc1,inactive,
CC1(C)C(=O)C=C[C@@]2(C)C1C=C[C@@]1(C)C2CC[C@@]2(C)C(c3ccoc3)OC(=O)C3OC312 (stereo not given in full),active: 7.08 µM,
S=C(NC12CC3CC(CC(C3)C1)C2)N1CCCC1,active: 14.1 µM,
O=C(CCCCl)NC(=S)Nc1cc(C(F)(F)F)ccc1N1CCOCC1,active: 7.94 µM,

SMILES,Potency,"activity change, negative = inhibition"
Cc1ccc(Cn2cccc(-c3nc4ccccc4s3)c2=O)cc1,inactive,
CN(C)/C=C(\C#N)C(=O)c1cccc(Oc2ccc(Br)cc2)c1,"inconclusive: 12.6 µM [activator, single point]",
Cc1nnc2c3ccccc3c(-c3cccc4ccccc34)nn12,"inconclusive: 2.24 µM [inhibitor, full curve, poor fit]",
CSc1ccc(Cl)c(C(=O)Nc2ccc(C)cn2)c1,inactive,
NC(=O)c1ccccc1-c1nc(-c2ccccc2)no1,"inconclusive: 0.794 µM [activator, single point]",
C=CCn1cccc(/C=C/C(=O)c2ccc(C(C)(C)C)cc2)c1=S,"inconclusive: 20 µM [inhibitor, single point]",
O=C(NC1=NCCS1)c1ccccc1OCc1ccc(F)cc1,"inconclusive: 11.2 µM [inhibitor, partial curve, poor fit]",
CN(c1ccccc1C(=O)N1CCN(c2ccccc2)CC1)S(C)(=O)=O,"inconclusive: 0.1 µM [inhibitor, partial curve, poor fit]",
Cc1ccc2nsnc2c1NC(=O)CCl,"inconclusive: 35.5 µM [inhibitor, single point]",
Cc1ccc(-c2nc(S(=O)(=O)c3ccc(F)cc3)c(SCC(=O)NCC3CCCO3)o2)cc1 (stereo not given),"inconclusive: 3.16 µM [inhibitor, single point]",
O=C(c1ccccc1)c1c[nH]c2ccccc12,"inconclusive: 8.91 µM [activator, partial curve, poor fit]",
N=c1n(CC(=O)c2ccc([N+](=O)[O-])cc2)c2ccccc2n1Cc1ccccc1Cl,"inconclusive: 6.31 µM [inhibitor, partial curve, poor fit]",
S=C(NCCc1ccccn1)NC1CC2CCC1C2 (stereo not given),active: 6.31 µM,
COc1ccc(/C(C)=N/NC(=O)CNC(=O)c2cccs2)cc1OC,inactive,
C/C(CC(=O)Nc1cccc2c1CCCC2)=N\NC(=O)c1ccccc1N,"inconclusive: 35.5 µM [inhibitor, single point]",
N#C/C(=C\c1ccc(O)c(O)c1)C(=O)NCCCCc1ccccc1,"inconclusive: 15.8 µM [inhibitor, partial curve, poor fit]",
COC(=O)c1ccc(NC(=O)C(OC)c2ccccc2)cc1 (stereo not given),"inconclusive: 22.4 µM [activator, single point]",
CCCCn1c(-c2c(Cl)c(C)nn2C)n[nH]c1=S,active: 2.24 µM,
Cc1cccc(NC(=O)c2nc[nH]c2C(=O)NCC(=O)OCc2ccccc2)c1,active: 12.6 µM,
Cc1ccc(NC(=S)Nc2ccc(Cl)c(Cl)c2)c(OC(F)F)c1,"inconclusive: 35.5 µM [inhibitor, single point]",
CC1SC(c2ccc(F)cc2)NC1=O (stereo not given),inactive,
C=CCOn1c(-n2nc(C)cc2C)nc2ccccc2c1=O,"inconclusive: 25.1 µM [inhibitor, single point]",
CCCc1cc(=O)oc2c(C)c(O[C@@H]3O[C@H](CO)[C@@H](O)[C@H](O)[C@H]3O)ccc12,inactive,
O=C1CC(C(=O)N2CCc3ccccc32)CN1c1ccc(F)cc1 (stereo not given),inactive,
CCOC(=O)C1(CCOC)CCN(C(=O)Cc2ccsc2)CC1,inactive,

SMILES,Potency,"activity change, negative = inhibition"
COc1ccc(NC(=S)Nc2cc(S(=O)(=O)N3CCCCC3)ccc2OC)cc1,"inconclusive: 17.8 µM [inhibitor, single point]",
Cc1c(C(=O)NCc2cccnc2)oc2ccc(S(=O)(=O)N3CCCCC3)cc12,"inconclusive: 35.5 µM [activator, single point]",
COc1cc(NC(=O)/C=C/c2ccccc2[N+](=O)[O-])cc(OC)c1,"inconclusive: 11.2 µM [activator, partial curve]",
FC(F)(F)c1cnc2c(-c3ccccc3)n[nH]c2c1,"inconclusive: 35.5 µM [activator, single point]",
CCOC(=O)NCCOc1ccc(Oc2ccccc2)cc1,"inconclusive: 20 µM [activator, partial curve]",
Cc1ccc(S(=O)(=O)N2CCN(c3ncnc4sccc34)CC2)cc1,"inconclusive: 35.5 µM [inhibitor, single point]",
O=C(Nc1ccc(N2CCCCC2)cc1)c1ccccn1,active: 1.26 µM,
COc1ccc(NS(=O)(=O)c2ccc(-c3coc(C)n3)cc2)cc1,"inconclusive: 35.5 µM [activator, single point]",
Cc1ccc2nc(SCC3CCCCO3)[nH]c2c1 (stereo not given),active: 5.62 µM,
Cc1ccccc1-c1cc(-c2ccccc2O)on1,active: 12.6 µM,
CCN1C(=O)[C@H]2[C@H]3[C@H](O)[C@H](O)C/C(=N/O[C@@H](C)c4cn([C@H]5COC[C@H]5O)nn4)[C@@H]3CC[C@@H]2C1=O,,inactive: -1.97% [at 10 µM]
Cc1ccc(C(=O)N/C(=C\c2cccc([N+](=O)[O-])c2)C(=O)OCN2C(=O)c3ccccc3C2=O)cc1,"inconclusive: 28.2 µM [activator, single point]",
CCOC(=O)c1c(-c2ccccc2)csc1NC(=O)CSc1nncs1,inactive,
CCCCNC(=S)NNC(=O)c1c(C)nc2ccccn12,active: 12.6 µM,
Cc1ccc2[nH]c(=O)c3cc(C(=O)N4CCN(C(=O)c5ccco5)CC4)sc3c2c1,inactive,
CCC(=O)Nc1cccc(NC(=S)NC(=O)c2ccc(Cl)cc2)c1,"inconclusive: 25.1 µM [inhibitor, single point]",
C(=N\NC1=Nc2cccc3cccc1c23)/c1ccccn1,active: 0.0398 µM,
O=C(NC(=S)Nc1cccc(Cl)c1Cl)C1CC1,active: 2.51 µM,
CCN(CC(=O)NCc1cccs1)c1ccc(S(=O)(=O)N2CCN(C)CC2)cn1,"inconclusive: 10 µM [activator, partial curve]",
CCOC(=O)c1c(NC(=O)C2=C(C)NC(=S)NC2c2ccc(C)cc2)sc(C)c1C (stereo not given),active: 2.82 µM,
Cc1ccc(-c2n[nH]c(=S)n2/N=C/c2cccn2C)cc1,active: 3.16 µM,
CCOc1ccc(NC(=O)Nc2cc(C)ccc2OC)cc1,"inconclusive: 20 µM [activator, single point]",
CCCC(=O)Nc1cc(-c2nn(C)c(=O)c3ccccc23)ccc1N1CCOCC1,inactive,
O=C(Nc1ccccc1)c1ncoc1-c1ccc(Cl)cc1,inactive,
O=C(Nc1cccc(S(=O)(=O)N2CCCC2)c1)c1ccc2c(c1)OCO2,"inconclusive: 22.4 µM [activator, partial curve]",

# Compounds from the list above that contain a nitro group on carbon (four):
SMILES,Potency,"activity change, negative = inhibition"
O=[N+]([O-])c1c(NCCO)cc(N2CCCCCC2)c2nonc12,"inconclusive: 2.82 µM [activator, full curve]",
N=c1n(CC(=O)c2ccc([N+](=O)[O-])cc2)c2ccccc2n1Cc1ccccc1Cl,"inconclusive: 6.31 µM [inhibitor, partial curve, poor fit]",
COc1cc(NC(=O)/C=C/c2ccccc2[N+](=O)[O-])cc(OC)c1,"inconclusive: 11.2 µM [activator, partial curve]",
Cc1ccc(C(=O)N/C(=C\c2cccc([N+](=O)[O-])c2)C(=O)OCN2C(=O)c3ccccc3C2=O)cc1,"inconclusive: 28.2 µM [activator, single point]",
